Results are given in words; binding and its absence hold for the method and conditions named. In cells and extracts the contact can be indirect. Some results given as binding are weak or reduced against the parent protein; the word gives no strength. For part of these data: Tags and fused reporters may be left off the sequences shown.
What was measured:
Flag-RNF8 = target: T1, Flag-RNF8 (UniProt O76064); test: co-IP; HEK293T cells transfected with the indicated plasmids, lysed 48 h later in NP-40 lysis buffer; anti-Flag magnetic beads overnight at 4 C, six washes
T1 sequence: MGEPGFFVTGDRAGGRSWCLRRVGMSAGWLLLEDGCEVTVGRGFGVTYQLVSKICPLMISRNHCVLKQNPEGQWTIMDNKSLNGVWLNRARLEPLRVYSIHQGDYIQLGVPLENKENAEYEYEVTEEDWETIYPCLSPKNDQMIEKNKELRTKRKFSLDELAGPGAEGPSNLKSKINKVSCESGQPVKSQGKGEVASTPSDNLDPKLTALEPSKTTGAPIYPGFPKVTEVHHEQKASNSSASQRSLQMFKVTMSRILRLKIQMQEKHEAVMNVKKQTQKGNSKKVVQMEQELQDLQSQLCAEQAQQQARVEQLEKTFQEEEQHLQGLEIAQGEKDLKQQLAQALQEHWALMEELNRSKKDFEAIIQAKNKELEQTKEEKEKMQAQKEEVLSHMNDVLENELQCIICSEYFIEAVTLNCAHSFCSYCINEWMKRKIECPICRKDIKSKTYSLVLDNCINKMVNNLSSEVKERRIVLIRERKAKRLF

By UniProt entry, the sequences of proteins in these tests, tags left out.
UniProt P38398: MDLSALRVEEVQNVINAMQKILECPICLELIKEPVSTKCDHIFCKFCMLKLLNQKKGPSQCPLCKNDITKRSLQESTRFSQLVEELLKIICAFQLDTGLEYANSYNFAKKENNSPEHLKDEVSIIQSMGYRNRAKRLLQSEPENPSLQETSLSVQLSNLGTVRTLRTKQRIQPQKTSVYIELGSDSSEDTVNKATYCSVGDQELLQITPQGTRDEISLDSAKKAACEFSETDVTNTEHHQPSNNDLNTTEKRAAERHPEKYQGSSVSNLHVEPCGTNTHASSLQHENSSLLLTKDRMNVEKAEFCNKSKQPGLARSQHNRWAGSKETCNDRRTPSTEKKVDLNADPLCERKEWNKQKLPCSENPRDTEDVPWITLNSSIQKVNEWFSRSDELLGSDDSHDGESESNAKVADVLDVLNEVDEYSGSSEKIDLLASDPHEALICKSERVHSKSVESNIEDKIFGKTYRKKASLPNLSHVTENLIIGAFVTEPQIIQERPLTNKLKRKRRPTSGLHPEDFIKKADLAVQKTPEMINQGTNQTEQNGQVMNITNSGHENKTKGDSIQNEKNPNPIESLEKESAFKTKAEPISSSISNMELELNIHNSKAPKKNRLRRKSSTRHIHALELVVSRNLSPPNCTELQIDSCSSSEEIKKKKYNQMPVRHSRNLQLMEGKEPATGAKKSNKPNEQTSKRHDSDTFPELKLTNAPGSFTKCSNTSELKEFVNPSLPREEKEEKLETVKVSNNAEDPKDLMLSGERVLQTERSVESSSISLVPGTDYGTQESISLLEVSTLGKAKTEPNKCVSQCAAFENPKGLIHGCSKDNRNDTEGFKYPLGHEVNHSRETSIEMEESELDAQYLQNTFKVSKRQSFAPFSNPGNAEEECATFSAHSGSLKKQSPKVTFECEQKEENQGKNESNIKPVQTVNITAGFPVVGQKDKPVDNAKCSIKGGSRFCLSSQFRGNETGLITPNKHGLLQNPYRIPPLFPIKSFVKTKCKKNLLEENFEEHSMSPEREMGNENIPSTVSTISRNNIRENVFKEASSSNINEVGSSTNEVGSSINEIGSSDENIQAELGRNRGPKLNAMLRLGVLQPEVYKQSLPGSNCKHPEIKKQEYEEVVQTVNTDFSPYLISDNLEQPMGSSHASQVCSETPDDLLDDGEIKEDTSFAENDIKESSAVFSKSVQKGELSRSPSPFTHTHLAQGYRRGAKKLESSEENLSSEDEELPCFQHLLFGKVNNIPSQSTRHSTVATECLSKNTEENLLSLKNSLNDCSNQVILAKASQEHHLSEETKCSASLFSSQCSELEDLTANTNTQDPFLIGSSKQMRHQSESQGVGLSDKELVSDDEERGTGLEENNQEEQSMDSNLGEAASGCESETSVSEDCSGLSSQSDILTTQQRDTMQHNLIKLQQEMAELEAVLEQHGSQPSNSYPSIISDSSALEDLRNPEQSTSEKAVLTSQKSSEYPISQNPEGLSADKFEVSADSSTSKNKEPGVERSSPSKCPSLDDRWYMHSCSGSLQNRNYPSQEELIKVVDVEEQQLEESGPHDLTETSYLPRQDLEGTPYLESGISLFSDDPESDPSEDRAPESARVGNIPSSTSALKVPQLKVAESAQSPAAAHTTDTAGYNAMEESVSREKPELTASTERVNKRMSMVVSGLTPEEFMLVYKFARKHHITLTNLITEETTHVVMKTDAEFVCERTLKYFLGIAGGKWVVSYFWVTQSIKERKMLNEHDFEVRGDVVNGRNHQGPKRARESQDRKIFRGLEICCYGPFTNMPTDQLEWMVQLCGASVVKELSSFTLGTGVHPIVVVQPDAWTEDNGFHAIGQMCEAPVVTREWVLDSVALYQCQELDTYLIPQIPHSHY
UniProt P49760: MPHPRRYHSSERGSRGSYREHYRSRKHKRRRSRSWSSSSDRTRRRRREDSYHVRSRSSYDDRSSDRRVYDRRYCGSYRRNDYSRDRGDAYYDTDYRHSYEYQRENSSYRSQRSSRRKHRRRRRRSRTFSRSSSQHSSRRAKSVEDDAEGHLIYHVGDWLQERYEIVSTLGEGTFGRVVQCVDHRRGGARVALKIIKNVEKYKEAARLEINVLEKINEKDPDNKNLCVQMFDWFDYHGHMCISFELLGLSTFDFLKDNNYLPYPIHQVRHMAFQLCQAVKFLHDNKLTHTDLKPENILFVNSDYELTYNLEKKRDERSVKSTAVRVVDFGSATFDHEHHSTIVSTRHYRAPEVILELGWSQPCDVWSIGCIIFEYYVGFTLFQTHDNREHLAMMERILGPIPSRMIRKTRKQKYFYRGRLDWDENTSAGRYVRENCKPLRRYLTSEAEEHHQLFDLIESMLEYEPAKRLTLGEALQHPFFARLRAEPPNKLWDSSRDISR

[1] = target: T2, ring finger protein 8 (RNF8) (human (endogenous in A2780)) (UniProt O76064); test: co-IP; endogenous proteins of A2780 cells; 2 ug antibody overnight at 4 C, protein A/G magnetic beads 6 h at 4 C, six washes with NP-40 buffer; IgG as negative control
T2 sequence: T1 sequence

[2] = target: breast cancer gene 1 (BRCA1) (human (endogenous in A2780)) (UniProt P38398); test: co-IP; endogenous proteins of ovarian cancer cells; IP by BRCA1 antibody, IgG as negative control; cells treated with different concentrations of cisplatin for 12 h or with 66.7 uM cisplatin for different hours; protein A/G magnetic beads, NP-40 buffer washes

| binding (Flag-RNF8) | binding [1] | binding [2] | Substance |
| --- | --- | --- | --- |
| binds |  |  | CLK2 (in HEK293T cells, exogenous co-immunoprecipitation with Flag-RNF8) (from UniProt P49760 1-499) |
|  | binds | binds | Cdc2-like kinase 2 (CLK2) (from UniProt P49760 1-499) |

Reference: article PMC11016135
